Reference: PubChem BioAssay AID743255 (National Center for Advancing Translational Sciences (NCATS), 2014)
Among all 390,000 compounds or so, about 910 (0.23%) were called active. Inconclusive results, whose numbers are uncertain, are shown with a selection of clear calls. Calls follow the shape of the dose curve; as a rule, active = well fitted inhibition curve with a large enough effect; inconclusive = small, poorly fitted or top-dose-only effect; inactive = no such curve, though single readings can be large or run the other way. A potency beside an inconclusive call is a rough fit, not a confirmed value.

The chains behind the UniProt entries cited, without tags or fusion partners. Where a name states a change or a piece, a line headed by the entry shows the natural chain unless it says otherwise.
UniProt O94782: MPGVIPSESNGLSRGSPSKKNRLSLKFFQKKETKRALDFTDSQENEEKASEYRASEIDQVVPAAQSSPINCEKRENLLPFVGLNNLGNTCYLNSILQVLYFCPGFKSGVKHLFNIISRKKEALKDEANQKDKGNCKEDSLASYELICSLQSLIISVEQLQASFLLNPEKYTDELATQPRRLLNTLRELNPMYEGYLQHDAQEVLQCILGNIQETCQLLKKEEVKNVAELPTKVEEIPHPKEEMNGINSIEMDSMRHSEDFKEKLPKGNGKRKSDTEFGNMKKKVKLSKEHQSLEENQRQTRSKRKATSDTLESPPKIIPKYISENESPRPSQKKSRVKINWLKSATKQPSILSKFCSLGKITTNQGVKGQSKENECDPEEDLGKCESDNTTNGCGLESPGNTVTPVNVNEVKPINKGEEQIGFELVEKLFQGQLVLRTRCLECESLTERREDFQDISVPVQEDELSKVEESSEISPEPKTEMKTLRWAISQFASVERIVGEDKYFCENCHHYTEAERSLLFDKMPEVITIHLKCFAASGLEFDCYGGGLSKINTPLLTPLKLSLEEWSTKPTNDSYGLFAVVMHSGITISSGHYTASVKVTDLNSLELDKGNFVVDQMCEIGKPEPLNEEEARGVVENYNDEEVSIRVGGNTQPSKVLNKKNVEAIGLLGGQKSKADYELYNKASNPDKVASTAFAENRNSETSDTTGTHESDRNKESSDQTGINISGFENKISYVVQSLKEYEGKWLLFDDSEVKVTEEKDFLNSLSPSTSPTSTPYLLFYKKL

What follows are compounds tested against Ubiquitin carboxyl-terminal hydrolase 1 (Homo sapiens) (UniProt O94782) (assay: Inhibitors of USP1/UAF1: Primary Screen). Settings: recombinant USP1/UAF1, Ub-Rhodamine cleavage fluorescence; activity change, negative = inhibition: at 57.1 µM (top of the series).
Outline: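 In this screen, compounds sit with the deubiquitinase complex (1nM) for 15 min at room temperature before Ub-Rho is added at 150nM final. Fluorescence rise is then followed for 6 reads every 60 seconds.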
% is scaled to controls: 0 for no effect and ±100 for the full control effect; potency is read from the fitted curve at half-maximal effect.
Also: nearly all actives have a fitted effect of over 60% in size.

Potency, active:
O=C(O)CCN1C(=O)/C(=C/c2ccc(-c3nc4ccccc4s3)o2)SC1=S 7.08 µM
Cc1ccc2c(c1C)-c1c(ccc(C)c1C)C(=O)C2=O 8.91 µM

Potency, inconclusive:
CCCCCCn1c(=O)[nH]c2nc3cc(N)ccc3nc2c1=O 4.47 µM [inhibitor, partial curve]
O=C(CN1C(=O)c2ccccc2C1=O)NC1CCS(=O)(=O)C1 (stereo not given) 11.2 µM [inhibitor, partial curve, poor fit]
Cc1ccccc1Oc1nc2c(c(=O)n(C)c(=O)n2C)n1Cc1ccc(Br)cc1 22.4 µM [inhibitor, partial curve]
O=C(NCc1ccc(F)cc1)c1cc2c(s1)-c1ccccc1SC2 44.7 µM [inhibitor, partial curve]
CCN1C(=O)[C@H]2[C@@H](c3ccc(OC)cc3)N3C(=O)CN(CCOC)C(=O)[C@@]3(Cc3ccccc3)[C@H]2C1=O 50.1 µM [inhibitor, partial curve, poor fit]
O=C1Cc2cc(O)ccc2O1 56.2 µM [inhibitor, partial curve, poor fit]
Nc1c(C(=O)Nc2ccc(Cl)cc2F)sc2nc(-c3cccs3)ccc12 17.8 µM [inhibitor, partial curve, poor fit]
COc1ccc(CN2C(=O)c3ccccc3C(/C=N\OCc3ccc(C)cc3)C2=O)cc1 (stereo not given) 31.6 µM [inhibitor, partial curve]
CC(C)(C)OC(=O)N1CCC(c2c(C(=O)N3CCN(c4ncccn4)CC3)cnn2-c2ccc(F)cc2F)CC1 0.199 µM [inhibitor, full curve, poor fit]
Cc1c(Cl)cccc1N=C1SCCN1C(=O)CN1C(=O)NC2(CCCC2)C1=O 44.7 µM [inhibitor, partial curve, poor fit]
CCN1C(=O)[C@H]2[C@@H](c3ccc(-c4cccc(Cl)c4)c(OC)c3)N[C@@](Cc3ccccc3)(C(=O)OC)[C@H]2C1=O 0.355 µM [inhibitor, full curve, poor fit]
O=C(Cn1c(=O)ccc2cc(S(=O)(=O)N3CCCC3)ccc21)NCc1ccc(F)cc1 15.8 µM [inhibitor, partial curve]
COc1ccccc1OCCNC(=O)C1CC(=O)N(c2ccc3c(c2)OCCO3)C1 (stereo not given) 4.47 µM [inhibitor, full curve]
Cc1nnn(-c2nonc2N)c1C(=O)N/N=C/c1cccc2ccccc12 50.1 µM [inhibitor, partial curve, poor fit]
O=C(Nc1ccc(F)c(Cl)c1)C1CCCN1S(=O)(=O)c1ccc(F)cc1 (stereo not given) 10 µM [inhibitor, partial curve, poor fit]
COc1cccc(C2Nc3ccccc3-c3nnc(SCc4ccccc4)nc3O2)c1OC (stereo not given) 44.7 µM [inhibitor, partial curve]
O=C(O)c1ccc(N/N=C/C2=C(N3CCOCC3)C(=C\c3ccccc3)/CC2)cc1 39.8 µM [inhibitor, partial curve]
Cc1ccc2c(c1)C(=O)N1[C@H]3c4cc(Cl)ccc4OC[C@@H]3[C@H](c3ccccc3)[C@]1(C)C(=O)N2 39.8 µM [inhibitor, partial curve, poor fit]
CN1CCN(C(=O)C2=C[C@@H](c3ccc(Br)cc3)C[C@@H](OCc3ccc(CO)cc3)O2)CC1 10 µM [inhibitor, partial curve, poor fit]
N#CCc1nn2c3c(cnc2c1C#N)C(=O)CCC3 15.8 µM [inhibitor, partial curve]
Cc1ccc(C2C(/C=C3/SC(=S)NC3=O)=C(c3cccs3)Oc3ccccc32)cc1 (stereo not given) 35.5 µM [inhibitor, single point]
Cn1c(-n2cccc2)c(-c2c(-c3ccc(F)cc3)[nH]c3c2c(=O)[nH]c(=O)n3C)c(=O)[nH]c1=O 2 µM [inhibitor, partial curve, poor fit]
CCOc1ccc2oc(=O)cc(CN3CCOCC3)c2c1 1.41 µM [inhibitor, partial curve, poor fit]
CCOC(=O)c1[nH]c2c(c1C)C(=O)CC(c1ccc(F)cc1)C2 (stereo not given) 35.5 µM [inhibitor, partial curve]
NC(=O)[C@H]1CC2(CC(c3cccc(NC(=O)COc4ccc(Cl)cc4)c3)=NO2)CN1C(=O)Cc1ccc([N+](=O)[O-])cc1 (stereo not given in full) 3.55 µM [inhibitor, single point]
Cc1cc(-c2onc(C)c2C(=O)Nc2ccc(C(F)(F)F)cc2)no1 5.01 µM [inhibitor, partial curve]
CCn1cc(C(=O)N2CCN(c3ccccc3)CC2)c(=O)c2cc(S(=O)(=O)N3CCC(C)CC3)ccc21 14.1 µM [inhibitor, partial curve, poor fit]
COc1cc(/C=C/C(=O)OCC(=O)N2CC(C)OC(C)C2)ccc1OCC#N (stereo not given) 0.251 µM [inhibitor, full curve, poor fit]

Some of these compounds in order of molecular weight, ascending.
Potency, inconclusive:
N#CCc1nn2c3c(cnc2c1C#N)C(=O)CCC3 15.8 µM [inhibitor, partial curve]
CCOc1ccc2oc(=O)cc(CN3CCOCC3)c2c1 1.41 µM [inhibitor, partial curve, poor fit]
COc1ccc(CN2C(=O)c3ccccc3C(/C=N\OCc3ccc(C)cc3)C2=O)cc1 (stereo not given) 31.6 µM [inhibitor, partial curve]

Next part:

Activity change, negative = inhibition, inactive:
COc1cccc(Nc2nc(-c3sc(NC(=O)c4ccco4)nc3C)cs2)c1 -22.2%
Cc1nn(C)c(Nc2ccc(Br)cc2)c1Br -9.9%
CCCCCCSc1cc(-c2nc3ccc(Cl)cn3c2NCCCC)ccc1OC -27.4%
O=[N+]([O-])c1cc(S(=O)(=O)N2CCCC2)ccc1OCCOc1ccccc1 -23.2%
CCOC(=O)C1=C(C#N)C(C(=O)OCC)c2ncccc21 (stereo not given) 2.43%
O=C(Nc1cc(Cl)ccc1Oc1ccccc1)c1cnccn1 -12.1%
N#CCc1nn(-c2ccccc2)c2ncnc(N)c12 -22.7%
O=C1CN(c2ccccc2)C(=S)N1C(=O)c1ccccc1 -23.5%
Cc1c(Cl)cccc1NC(=O)NCCOCCn1c(=O)oc2ccccc21 -2.41%
Cc1ccc(-n2c(SCC(=O)N3CCC(C)CC3)nc3c([nH]c4ccccc43)c2=O)cc1 1.06%
